# Primary screen of a compound library

Sequences of proteins named here, by UniProt entry; tags and fusion partners are left off. Residues count along the entry.
UniProt A4I591, 1-473: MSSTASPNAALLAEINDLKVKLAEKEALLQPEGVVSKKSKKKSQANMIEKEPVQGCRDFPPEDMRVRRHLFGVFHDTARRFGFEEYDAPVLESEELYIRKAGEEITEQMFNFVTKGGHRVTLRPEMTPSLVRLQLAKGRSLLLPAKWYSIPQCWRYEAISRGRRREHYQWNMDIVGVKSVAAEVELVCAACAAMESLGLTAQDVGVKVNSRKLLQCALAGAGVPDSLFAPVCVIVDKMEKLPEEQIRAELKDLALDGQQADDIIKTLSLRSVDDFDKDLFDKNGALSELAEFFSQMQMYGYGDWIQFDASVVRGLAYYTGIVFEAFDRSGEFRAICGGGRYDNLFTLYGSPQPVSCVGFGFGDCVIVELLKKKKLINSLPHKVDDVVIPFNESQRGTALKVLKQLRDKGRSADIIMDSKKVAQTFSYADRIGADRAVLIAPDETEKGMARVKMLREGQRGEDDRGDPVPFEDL
UniProt I6X8D2, whole entry: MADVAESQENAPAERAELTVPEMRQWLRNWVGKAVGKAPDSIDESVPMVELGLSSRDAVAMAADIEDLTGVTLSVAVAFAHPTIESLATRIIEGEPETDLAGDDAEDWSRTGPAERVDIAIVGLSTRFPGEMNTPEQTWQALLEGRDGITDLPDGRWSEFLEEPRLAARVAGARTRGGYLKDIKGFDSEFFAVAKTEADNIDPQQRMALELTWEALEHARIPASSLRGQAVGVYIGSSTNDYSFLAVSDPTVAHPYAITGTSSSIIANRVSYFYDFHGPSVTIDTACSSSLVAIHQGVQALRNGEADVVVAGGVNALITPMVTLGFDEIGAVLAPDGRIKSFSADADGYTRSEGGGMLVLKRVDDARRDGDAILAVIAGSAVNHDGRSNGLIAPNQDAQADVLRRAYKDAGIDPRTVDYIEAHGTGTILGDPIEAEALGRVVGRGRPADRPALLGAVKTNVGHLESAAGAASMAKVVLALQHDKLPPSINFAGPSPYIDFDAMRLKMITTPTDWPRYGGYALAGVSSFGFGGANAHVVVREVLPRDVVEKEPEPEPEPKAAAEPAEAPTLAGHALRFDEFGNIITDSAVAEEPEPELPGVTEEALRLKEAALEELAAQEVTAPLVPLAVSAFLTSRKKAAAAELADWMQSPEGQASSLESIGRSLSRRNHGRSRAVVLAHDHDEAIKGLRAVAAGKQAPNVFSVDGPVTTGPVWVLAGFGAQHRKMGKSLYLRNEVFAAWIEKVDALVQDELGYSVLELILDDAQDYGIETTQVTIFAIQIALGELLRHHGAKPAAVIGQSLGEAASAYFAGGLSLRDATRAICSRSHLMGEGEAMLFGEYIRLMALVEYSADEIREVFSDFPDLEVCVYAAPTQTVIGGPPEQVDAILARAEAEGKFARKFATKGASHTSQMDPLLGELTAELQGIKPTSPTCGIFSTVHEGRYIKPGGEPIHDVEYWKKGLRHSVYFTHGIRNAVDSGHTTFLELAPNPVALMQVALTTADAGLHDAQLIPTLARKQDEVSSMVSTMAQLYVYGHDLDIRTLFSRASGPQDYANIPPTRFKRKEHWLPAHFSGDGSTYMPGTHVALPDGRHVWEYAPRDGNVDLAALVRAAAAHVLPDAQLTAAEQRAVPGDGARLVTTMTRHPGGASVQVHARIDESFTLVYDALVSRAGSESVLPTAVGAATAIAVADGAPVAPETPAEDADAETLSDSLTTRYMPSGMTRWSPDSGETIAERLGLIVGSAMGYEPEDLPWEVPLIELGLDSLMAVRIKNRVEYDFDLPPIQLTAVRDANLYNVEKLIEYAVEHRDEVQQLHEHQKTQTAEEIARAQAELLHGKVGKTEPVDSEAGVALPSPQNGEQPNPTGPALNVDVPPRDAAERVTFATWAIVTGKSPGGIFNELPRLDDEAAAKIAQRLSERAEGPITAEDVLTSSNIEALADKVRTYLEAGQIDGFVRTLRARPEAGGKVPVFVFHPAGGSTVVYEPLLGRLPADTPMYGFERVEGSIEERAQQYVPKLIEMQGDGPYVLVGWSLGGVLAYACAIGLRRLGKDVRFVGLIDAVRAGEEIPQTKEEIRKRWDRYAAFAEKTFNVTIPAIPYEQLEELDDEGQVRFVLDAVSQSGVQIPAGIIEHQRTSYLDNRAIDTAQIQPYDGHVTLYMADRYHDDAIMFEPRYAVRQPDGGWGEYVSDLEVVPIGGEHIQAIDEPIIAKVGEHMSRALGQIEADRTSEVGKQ

From ChEMBL document CHEMBL3988442, “University of Dundee, Small-Polar-MMV Screening Library” (2021).

A: 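Enzyme assay of histidyl-tRNA synthetase; the read-out is not stated. Target: Histidine-tRNA ligase, Leishmania infantum (UniProt A4I591). Concentration: 30 µM. Direction is inferred from retests: higher values go with stronger inhibition. The assay is labelled LdHisRS but filed under L. infantum. About 69,000 compounds were tested under these conditions; 0.6% (about 410) showed 50% or more at least once.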
B: 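Enzyme assay of the thioesterase domain of polyketide synthase 13; the read-out is not stated. Target: Polyketide synthase Pks13, Mycobacterium tuberculosis (UniProt I6X8D2). Concentration: 30 µM. The record gives no direction; the compounds picked for IC50 retests had high values, so higher reads as stronger inhibition. About 67,000 compounds were tested under these conditions; 0.46% (about 300) showed 50% or more at least once.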
C: 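Cell assay of Leishmania donovani living inside macrophages; the read-out is not stated. Concentration: 30 µM. The record gives no direction; compounds that gave an IC50 in retests scored well above the rest, so higher reads as stronger inhibition. About 69,000 compounds were tested under these conditions; 1.5% (about 1,000) showed 50% or more at least once.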

The filed quantity is “Percent Effect” (%). The controls that fix the scale are not given in the record; negative values are as filed. This is an unselected part of the compounds tested. Two or more numbers in one place are separate tests of the same structure; such repeats can differ widely.

* O=C(O)C(F)(F)F.[H][C@]12CC(=O)N(CC3CC3)[C@@]1([H])CCN2Cc1cccc(C)n1 | C: 9.017%
* Cc1cc(C)n(-c2ccnc(N3CCC(C(=O)N4CCCC4)CC3)n2)n1 | A: 19.13%; B: -25.83%; C: 14% and -5.717%
* O=C(O)c1cc2c(nc1-c1ccsc1)CCN(C(=O)C1CC1)CC2 | A: 12.07%; B: -24.11%
* Cc1cc(-n2cccn2)ccc1CN1C[C@@H](CN(C)C)[C@@H](CO)C1 | A: 15.5%; B: -2.859%; C: 35.42%
* CC(C)NC(=O)CCNC(=O)c1cc(F)ccc1NS(C)(=O)=O | A: 7.042%; B: 12.34%; C: 1.906%
* COc1ccc(CC(=O)N2CCN(c3nccn3C)CC2)cc1 | A: 17.81%; B: -8.07%
* O=C(NCCc1c[nH]c2ccccc12)C1(n2cnnn2)CCCCC1 | A: 2.632%; B: -12.55%; C: 27.15%
* CCc1nc(C)c(C(=O)NCCNC(=O)c2cccs2)s1 | A: -2.632%; B: -16.23%; C: 1.159%
* COCCNC(=O)c1cc(F)ccc1NS(C)(=O)=O | A: 4.225%; B: -9.113%; C: 20.66%
* Cc1ccc(C(=O)N2C[C@H]3CCC[C@@]3(COCC3CCOCC3)C2)o1 | A: 11.93%; B: 0.2936%
* N#Cc1ccc(NC2CCN(c3ncccn3)CC2)cc1Cl | A: 31.43%; B: -5.933%; C: -22.27%
* Cc1noc(C)c1CN1C[C@@H](C(=O)O)[C@H](c2ccccc2)C1 | A: 11.11%; B: -17.17%; C: 44.39%
* Cc1ncc2c(n1)CCN(C(C(N)=O)c1ccccc1)C2 (configuration not stated) | A: 23.94%; B: -15.96%; C: -3.357%
* O=c1[nH]c(CCN2CCCC(Cn3cncn3)C2)nc2ccccc12 (configuration not stated) | A: 18.46%; B: -11.67%; C: 32.17%
* CC(=O)Nc1sccc1C(=O)C(C)(C)C | A: 0%; B: 11.17%; C: 4.596%
* COc1ccccc1OCc1cc(C(=O)N2CCN[C@H](C)C2)n[nH]1 | A: 17.31%; B: -16.14%; C: 7.332%
* Cc1nn(C)cc1C1CC(=O)Nc2c1cnn2C(C)(C)C (configuration not stated) | A: 16.3%; B: -0.08709%; C: 17.15%
* COCc1nc(C(=O)N2CCCC2c2noc(C)n2)cs1 (configuration not stated) | A: 16.52%; B: -11.2%; C: 23.11%
* c1coc(-c2nnc(CN(Cc3cccs3)CC3CCCO3)o2)c1 (configuration not stated) | A: 9.91%; B: -20.81%; C: 20.31%
* O=C(O)c1ccc2c(CN3CCOCC3)c[nH]c2c1 | A: 1.695%; B: -6.49%; C: -8.526%
* OCC1N(Cc2ccc(F)cc2)[C@H]2CC[C@]1(O)CC2 (some centres not stated) | A: 12.24%; B: 4.023%
* CC(C)c1nsc(N2CCOC3(CCCC3)C2)n1 | A: 3.226%; B: -0.7414%; C: 14.2%
* Cc1nc(-c2ccc(F)cc2)nc2c1CCN(C(=O)CN(C)C)CC2 | A: 10.53%; B: -37.78%; C: 21.11% and 21.02%
* O=C(c1cccc(CNS(=O)(=O)c2ccccc2F)c1)N1CCCC1 | A: 5.333%; B: -11.74%; C: 16.1%
* Cc1cnn(CCNc2nc(C)cc(N(C)C)n2)c1 | A: -0.9009%; B: -8.087%; C: -24.91%
* CCS(=O)(=O)N1CCOC2(CCCN(Cc3ccccn3)C2)C1 (configuration not stated) | A: 11.32%; B: 11.13%
* CC(C)c1nc(/C=C/c2cnn(-c3ccccc3)c2)ncc1C(=O)O | A: 11.86%; B: -8.973%; C: 15.52%
* O=C(c1cccc(-c2ccc(F)cc2)c1)N1CCC2(CC1)[C@H](O)C[C@@H]2O | A: 14.75%; B: -9.115%; C: 2.986%
* O=C(O)C(F)(F)F.O=C(O)C(F)(F)F.[H][C@@]12COC[C@]1(COCc1ccncc1)CN(Cc1cccc(F)c1)C2 | C: 18.6%
* CNc1nc(C(=O)N2CCC3(CCCN(C)C3=O)C2)cs1 (configuration not stated) | A: 16%; B: 0.4033%; C: 22.84%
* O=C(NCCCN1CCC(OC2CCCCC2)CC1)C1CCCC1 | A: 3.896%; B: 13.47%; C: 9.662%
* Cc1ccc(S(=O)(=O)NCCCN2CCC(O)CC2)c(F)c1 | A: 9.677%; B: 8.897%; C: -17.44%
* O=C(O)C(F)(F)F.O=C(c1ccco1)N1CCCC2(CN(Cc3ccsc3)CCO2)C1 (configuration not stated) | C: -23.26%
* CN1CCN(c2ccc(NCc3ccc(OC(F)(F)F)cc3)cn2)CC1 | A: 35.48%; B: 3.182%; C: 43.95%
* CC(C)c1nn(C)c(N(C)C)c1CNCc1ccc(CO)c(F)c1 | A: 16.67%; B: -10.11%; C: 4.289%
* COc1cccc(CCn2ccnc2-c2cn(C3CCNCC3)nn2)c1 | A: 20%; B: 0.992%; C: -3.244%
* Cc1ccc(CN2CC3(CCN(C(=O)c4cscn4)C3)C2)o1 | A: 17.74%; B: -17.38%
* CC(Cn1cccn1)NC(=O)Nc1ccc(F)cc1 (configuration not stated) | A: 16.35%; B: -4.577%; C: 14.11%
* Cn1nccc1C(=O)N1Cc2ccccc2OC2(CCOCC2)C1 | A: 26.32%; B: -12.32%; C: 16.68% and 11.21%

The last 5 entries again:

CC(C)c1nn(C)c(N(C)C)c1CNCc1ccc(CO)c(F)c1 gave A: 16.67%; B: -10.11%; C: 4.289%.
COc1cccc(CCn2ccnc2-c2cn(C3CCNCC3)nn2)c1 gave A: 20%; B: 0.992%; C: -3.244%.
Cc1ccc(CN2CC3(CCN(C(=O)c4cscn4)C3)C2)o1 gave A: 17.74%; B: -17.38%.
CC(Cn1cccn1)NC(=O)Nc1ccc(F)cc1 (configuration not stated) gave A: 16.35%; B: -4.577%; C: 14.11%.
Cn1nccc1C(=O)N1Cc2ccccc2OC2(CCOCC2)C1 gave A: 26.32%; B: -12.32%; C: 16.68% and 11.21%.